The source of these data is patent US20090311237A1, “Combination therapy using a soluble hyaluronidase and a bisphosphonate” (priority 2008, published 2009).

The data set can be described thus: C-terminal heterogeneity of soluble rHuPH20 (Asp-N digestion, C-terminal sequencing).
The mark [1] stands for this setting: Lot HUA0505MA (3D35M cells, 100 L bioreactor).
[2] abbreviates: Lot HUB0701EB (2B2 cells, 300 L bioreactor).

As to “D28a (DAFLKPPMETEEPQIFY; soluble rHuPH20 1-447; listed as Homo sapiens)”, the “Abundance of C-terminal fragment” value is, setting by setting: under setting [1], 0.2%; under setting [2], 1.9%.
As for “D28b (DAFLKPPMETEEPQIF; soluble rHuPH20 1-447; listed as Homo sapiens)”, the “Abundance of C-terminal fragment” value runs as follows: under setting [1], 18.4%; under setting [2], 46.7%.
